From PubChem BioAssay AID328 (DTP/NCI, 2004)
The list does not hold the whole screen: it is rich in T/C values a quarter to a half above the control, in often repeated tests (any T/C) and in doses without a T/C. Further doses and runs are listed elsewhere. T/C: endpoint of the treated group in % of that of the vehicle group. Some doses have a count of surviving animals in place of a T/C: the source files T/C as zero there, which appears to mark a toxic dose or a test without result, not a measured value. Some doses without a T/C left all or most animals alive at the check, yet need not have been tolerated: the source hardly ever lists a survival T/C far under the control, and the zero likely stands for such cases as well. Counts of survivors are from the toxicity check (mostly the fifth day) where no day follows; animals may have died later. Schedules are NCI's codes, taken here to give the interval after Q, in days (D) or hours (H), and the number of doses after X. For survival time, the PubChem record calls one and a half times the control and up active, and a quarter to a half above the control has no call in these data; cut-offs in other NCI protocols can differ. Some T/C values are followed by the survivors on the day toxicity was checked, most often the fifth; where none is given, no animal had died by that day. Starred links: 1 amine or outer side, 2 acyl side, 3 side chain; linkers in the order of their positions; H or OH if unused. Positions of bridges follow the written chain, without caps; N, C: chain ends. Non-standard residues stand in square brackets, D forms with d. Residues, ends and D or L forms follow the SMILES beside them. Chains are numbered I, II in the order given. Actinocin(1to9) = Cc1c2oc3c(C)ccc(C(=O)[*:2])c3nc-2c(C(=O)[*:1])c(N)c1=O; X3 = O=C1CC(C(=O)[*:2])N([*:1])C1; NMeV = CN[CH](C(=O)O)C(C)C; Sar = CNCC(=O)O

Tested on: BDF1 mice, P388 leukemia ip, median survival T/C
Test: NCI In Vivo Anticancer Drug Screen. Data for tumor model P388 Leukemia (intraperitoneal) in B6D2F1 (BDF1) mice
Settings: T/C endpoint: median survival time, higher T/C = longer survival
In short: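 Read-out is survival of treated animals expressed relative to the vehicle group, as a T/C ratio.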

Compound: Cc1c2oc3c(C)ccc(C(=O)NC4C(=O)NC(C(C)C)C(=O)N5CCCC5C(=O)N(C)CC(=O)N(C)C(C(C)C)C(=O)OC4C)c3nc-2c(C(=O)NC2C(=O)NC(C(C)C)C(=O)N3CC(=O)CC3C(=O)N(C)CC(=O)N(C)C(C(C)C)C(=O)OC2C)c(N)c1=O (configuration not stated) (I: TV[X3][Sar][NMeV] / II: TVP[Sar][NMeV]; ester I:1-I:C, II:1-II:C; linker I:N-II:N via Actinocin(1to9); configuration not given here)
- T/C (dose: 3.1 micrograms/kg/injection, schedule: Q01DX009 (ip), vehicle: water): 142 % of control [8 of 9 alive]
- T/C (dose: 6.2 micrograms/kg/injection, schedule: Q01DX009 (ip), vehicle: water): 137 % of control
- T/C (dose: 12.5 micrograms/kg/injection, schedule: Q01DX001 (ip), vehicle: water): 137 % of control
- T/C (dose: 18.7 micrograms/kg/injection, schedule: Q04DX003 (ip), vehicle: water): 140 % of control
- T/C (dose: 100.0 micrograms/kg/injection, schedule: Q01DX001 (ip), vehicle: water): 149 % of control
- survivor count (dose: 200.0 micrograms/kg/injection, schedule: Q01DX001 (ip), vehicle: water): 2 of 10

Compound: CC1CN1P(=O)(N1CC1C)N1CC1C (configuration not stated)
- T/C (dose: 33.0 mg/kg/injection, schedule: Q04DX003 (ip), vehicle: saline): 131 % of control
- survivor count (dose: 100.0 mg/kg/injection, schedule: Q01DX009 (ip), vehicle: saline): 2 of 6
- survivor count (dose: 200.0 mg/kg/injection, schedule: Q04DX003 (ip), vehicle: saline): 3 of 6
- survivor count (dose: 400.0 mg/kg/injection, schedule: Q04DX003 (ip), vehicle: saline): 0 of 6

Compound: CC(C)(C)CC(C)(C)c1c(O)cc(O)cc1Cl
- survivor count (dose: 50.0 mg/kg/injection, schedule: Q01DX009 (ip), vehicle: gum acacia): 6 of 6
- survivor count (dose: 100.0 mg/kg/injection, schedule: Q01DX009 (ip), vehicle: gum acacia): 0 of 6
- survivor count (dose: 200.0 mg/kg/injection, schedule: Q01DX009 (ip), vehicle: gum acacia): 0 of 6

Compound: CC(C)(C)OC(=O)NC(CCC(=O)O)(Cc1ccccc1)C(=O)NC(CCC(=O)OCc1ccccc1)C(=O)OCc1ccccc1 (configuration not stated)
- survivor count (dose: 50.0 mg/kg/injection, schedule: Q01DX005 (ip), vehicle: saline with Tween-80): 5 of 5

Compound: CCCCCCCCCCCCCCCCCC[N+](C)(C)C (tested in a mixture with another compound)
- survivor count (dose: 8.0 mg/kg/injection, schedule: Q01DX009 (ip), vehicle: saline): 3 of 6

Compound: OCCNCc1ccccc1
- survivor count (dose: 200.0 mg/kg/injection, schedule: Q04DX003 (ip), vehicle: water): 3 of 6

Compound: CC(=O)[C@H]1CC[C@H]2[C@@H]3CCC4=CC(=O)[C@H](C)C[C@]4(C)[C@H]3C(=O)C[C@]12C
- survivor count (dose: 400.0 mg/kg/injection, schedule: Q01DX009 (ip), vehicle: saline with Tween-80): 6 of 6

Compound: N#Cc1cccc(C[P+](c2ccccc2)(c2ccccc2)c2ccccc2)c1
- T/C (dose: 26.25 mg/kg/injection, schedule: Q04DX003 (ip), vehicle: Klucel (hydroxypropylcellulose) (HPC)): 125 % of control
- survivor count (dose: 55.0 mg/kg/injection, schedule: Q01DX009 (ip), vehicle: Klucel (hydroxypropylcellulose) (HPC)): 1 of 6
- survivor count (dose: 80.0 mg/kg/injection, schedule: Q01DX009 (ip), vehicle: Klucel (hydroxypropylcellulose) (HPC)): 0 of 6
- survivor count (dose: 105.0 mg/kg/injection, schedule: Q04DX003 (ip), vehicle: Klucel (hydroxypropylcellulose) (HPC)): 4 of 6

Compound: Cc1ccc(CNc2ccc(F)cc2)cc1
- T/C (dose: 400.0 mg/kg/injection, schedule: Q01DX009 (ip), vehicle: other): 140 % of control

Compound: O=C(O)C1CCC[N-]C1.O=C(O)C1CCC[N-]C1.O=C(O)C1CCC[N-]C1.O=C(O)C1CCC[N-]C1.[Cl][Rh][Cl] (configuration not stated)
- survivor count (dose: 80.0 mg/kg/injection, schedule: Q01DX009 (ip), vehicle: saline): 4 of 6
- survivor count (dose: 200.0 mg/kg/injection, schedule: Q01DX009 (ip), vehicle: saline): 6 of 6
- survivor count (dose: 400.0 mg/kg/injection, schedule: Q01DX009 (ip), vehicle: saline): 4 of 6

Compound: [Cu+2].[O-]c1ccc(Br)c2cccnc12.[O-]c1ccc(Br)c2cccnc12
- survivor count (dose: 33.0 mg/kg/injection, schedule: Q04DX003 (ip), vehicle: saline with Tween-80): 6 of 6
- T/C (dose: 50.0 mg/kg/injection, schedule: Q04DX003 (ip), vehicle: saline with Tween-80): 127 % of control [5 of 6 alive]

Compound: NCC=C1C2CC3CC(C2)CC1C3
- survivor count (dose: 100.0 mg/kg/injection, schedule: Q04DX003 (ip), vehicle: saline): 3 of 6

Compound: C#CC(C)OCC(C)OC (configuration not stated)
- T/C (dose: 25.0 mg/kg/injection, schedule: Q04DX003 (ip), vehicle: saline with Tween-80): 145 % of control

Compound: CC1(C)N=C(N)N=C(N)N1c1ccc(CCc2ccccc2)c(Cl)c1
- T/C (dose: 6.0 mg/kg/injection, schedule: Q01DX009 (ip), vehicle: saline with Tween-80): 136 % of control
- T/C (dose: 9.0 mg/kg/injection, schedule: Q01DX009 (ip), vehicle: saline with Tween-80): 136 % of control

Compound: CC1CCN(SSc2nc3ccccc3s2)CC1
- T/C (dose: 200.0 mg/kg/injection, schedule: Q01DX009 (ip), vehicle: saline with Tween-80): 125 % of control
